The target in experiment [1] is T1, soybean Bowman-Birk Inhibitor (BBI), purified (soybean) (UniProt P01055).
T1 sequence (looked up): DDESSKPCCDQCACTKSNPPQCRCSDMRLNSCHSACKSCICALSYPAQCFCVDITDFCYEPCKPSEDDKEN
Nature of the experiment: phage ELISA, BBI immobilised, anti-M13 HRP detection. A general note: In an ELISA, binding on a coated surface is turned into a signal by an enzyme label.

For experiment [2], the target named is T1, soybean Bowman-Birk Inhibitor (BBI), purified (soybean). Nature of the experiment: SPR (Biacore T100), BBI immobilised on CM5 chip.
For experiment [3] the target is unchanged. Nature of the experiment: solid-phase assay, BBI immobilised, streptavidin-HRP detection.

No constants are given. Whether binding was seen depends on the method and setting. Some entries that bind do so weakly or less than the wild type.

With GAMHLPWHMGTLGGGS (peptide, not shown: large carriers) [phage clone displaying the 12-mer peptide of SEQ ID NO: 1], in experiment [1], the binding entry is given as “binds”.

B1: anti-BBI single chain antibody fragment (scFv) comprising SEQ ID 14 and 15 (scFv, V domains shown)
VH: EVQLQQSGAELVKPGASVKLSCTGSGFNIKDNNIHWLRQRPEQGLEWIGKIDPANGDTEYGPKLQGKATITSDTSSNTAYLQLNSLTSEDTAVYYCATDLYSKPVWFAYWGQGTLVTVSA
VL: DVLMSQAPLSLPVSLGDQASISCRSSQNIVHSNGNTYLEWYLQKPGQSPKLLIYKVSNRFSGVPDRFSGRGSGTDFTLKISRVEAEDLGVYYCFQGSHVPWTFGGGTKLEIK
Turning to B1, the binding entry in experiment [2] was “binds”.

B2: anti-BBI single chain Diabody (scDb) comprising SEQ ID 14 and 15 (protein)
VH: EVQLQQSGAELVKPGASVKLSCTGSGFNIKDNNIHWLRQRPEQGLEWIGKIDPANGDTEYGPKLQGKATITSDTSSNTAYLQLNSLTSEDTAVYYCATDLYSKPVWFAYWGQGTLVTVSA
VL: DVLMSQAPLSLPVSLGDQASISCRSSQNIVHSNGNTYLEWYLQKPGQSPKLLIYKVSNRFSGVPDRFSGRGSGTDFTLKISRVEAEDLGVYYCFQGSHVPWTFGGGTKLEIK
With B2, in experiment [2], the binding result is on record as “binds”.

As for ANYFLPPVLSSSGGGS (peptide, not shown: large carriers) [phage clone displaying the 12-mer peptide of SEQ ID NO: 3], the binding entry in experiment [1] was “binds”. In the case of GAMHLPWHMGTLGGGS (C-terminal 1,2-diaminoethane-biotin) [BBI-1: …-1,2-diaminoethane-biotin], the binding result in experiment [3] is “binds”. In the case of KFLGPLNHRDRHGGGS (peptide, not shown: large carriers) [phage clone displaying the 12-mer peptide of SEQ ID NO: 2], the binding result in experiment [1] is recorded as “binds”.

The record behind these values is EP2604624A1, “Bowman-Birk protease Inhibitor (BBI) binding peptides, and uses thereof in the separation, detection or purification of BBI” (University College Dublin National University Of Ireland, …, priority 2011, dated 2013).
